# Assay results: US9643952B2, “Pyridone compound” (KYOWA HAKKO KIRIN CO., LTD., priority 2012, dated 2017)
# Some entries share one result that the patent states for a list of compounds.
# Target: T1, human CCR10 (Homo sapiens, UniProt P46092)
# T1 construct: expressed in transfected cells; host or cells: KJMGER8 cells (Namalwa cell-derived cell line); expression induced with 10 nmol/L beta-estradiol for 24 hr
# T1 sequence (P46092 1-362): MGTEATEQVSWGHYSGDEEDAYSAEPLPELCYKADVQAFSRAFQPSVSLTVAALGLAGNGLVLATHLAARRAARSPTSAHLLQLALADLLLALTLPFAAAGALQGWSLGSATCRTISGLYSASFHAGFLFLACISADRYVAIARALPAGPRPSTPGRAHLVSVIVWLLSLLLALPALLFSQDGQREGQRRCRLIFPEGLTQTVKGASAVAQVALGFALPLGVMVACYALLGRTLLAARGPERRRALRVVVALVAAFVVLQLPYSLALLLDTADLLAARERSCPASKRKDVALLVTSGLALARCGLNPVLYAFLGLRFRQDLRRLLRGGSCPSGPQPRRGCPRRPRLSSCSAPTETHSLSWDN
# Test: Calcium assay of human CCR10 (CCR10 antagonistic effect, CTACK-induced increase of intracellular calcium ion concentration in hCCR10G16 cells)
# Assay type: cell-based
# Conditions: human CCR10-expressing hCCR10G16 cells, 300 nmol/L human recombinant CTACK, Fluo-3, FDSS; read-out: concentration at which the increase in the calcium ion concentration is inhibited by not less than 50%
row,Structure (SMILES),IC50 [µM]
1,"CCc1ccc(Nc2c(C(=O)N3CCC(c4ccc(F)cc4)CC3)cn(C)c(=O)c2Cl)cc1 [Compound 108, 3-chloro-4-(4-ethylphenylamino)-5-[4-(4-fluorophenyl)piperidine-1-carbonyl]-1-methylpyridin-2(1H)-one]",≤ 1
2,"COc1ccc(Nc2c(C(=O)N3CCC(c4ccc(F)cc4)CC3)cn(C)c(=O)c2Cl)c(C)c1 [Compound 43, 3-chloro-5-[4-(4-fluorophenyl)piperidine-1-carbonyl]-4-(4-methoxy-2-methylphenylamino)-1-methylpyridin-2(1H)-one]",≤ 1
3,"Cc1c(Nc2ccc(C#N)c(Cl)c2)c(C(=O)N2CCC(c3ccc(F)cc3)CC2)cn(C)c1=O [Compound 178, 2-chloro-4-{5-[4-(4-fluorophenyl)piperidine-1-carbonyl]-1,3-dimethyl-2-oxo-1,2-dihydropyridin-4-ylamino}benzonitrile]",≤ 1
4,"Cc1ccc(Nc2c(C(=O)N3CCC(c4ccc(F)cc4)CC3)cn(C)c(=O)c2Cl)cc1C#N [Compound 98, 5-{3-chloro-5-[4-(4-fluorophenyl)piperidine-1-carbonyl]-1-methyl-2-oxo-1,2-dihydropyridin-4-ylamino}-2-methylbenzonitrile]",≤ 1
5,"CC(C)c1ccc(Nc2c(C(=O)N3CCC(c4ccc(F)cc4)CC3)cn(C)c(=O)c2Cl)cc1 [Compound 115, 3-chloro-5-[4-(4-fluorophenyl)piperidine-1-carbonyl]-4-(4-isopropylphenylamino)-1-methylpyridin-2(1H)-one]",≤ 1
6,"CCCn1cc(C(=O)N2CCC(c3ccc(F)cc3)CC2)c(Nc2cc(Cl)ccc2C)c(Cl)c1=O [Compound 189, 3-chloro-4-(5-chloro-2-methylphenylamino)-5-[4-(4-fluorophenyl)piperidine-1-carbonyl]-1-propylpyridin-2(1H)-one]",≤ 1

# Now from value to compound:
row,IC50 [µM],Structure (SMILES)
1,≤ 1,"Cc1ccc(Cl)c(Nc2cc(=O)n(CCC(=O)O)cc2C(=O)N2CCC(c3ccc(F)cc3)CC2)c1 [Compound 3, 3-{4-(2-chloro-5-methylphenylamino)-5-[4-(4-fluorophenyl)piperidine-1-carbonyl]-2-oxopyridin-1(2H)-yl}propionic acid]"
2,≤ 1,"CCn1cc(C(=O)N2CCC(c3ccc(F)cc3)CC2)c(Nc2cc(Cl)ccc2C)c(Cl)c1=O [Compound 137, 3-chloro-4-(5-chloro-2-methylphenylamino)-1-ethyl-5-[4-(4-fluorophenyl)piperidine-1-carbonyl]pyridin-2(1H)-one]"
3,≤ 1,"Cc1cc(F)ccc1Nc1c(C(=O)N2CCC(c3ccc(F)cc3)CC2)cn(C)c(=O)c1C [Compound 120, 4-(4-fluoro-2-methylphenylamino)-5-[4-(4-fluorophenyl)piperidine-1-carbonyl]-1,3-dimethylpyridin-2(1H)-one]"
4,≤ 1,"Cc1c(Nc2ccc3c(c2)COC3)c(C(=O)N2CCC(c3ccc(F)cc3)CC2)cn(C2CCC2)c1=O [Compound 211, 1-cyclobutyl-4-(1,3-dihydroisobenzofuran-5-ylamino)-5-[4-(4-fluorophenyl)piperidine-1-carbonyl]-3-methylpyridin-2(1H)-one]"
5,≤ 1,"Cc1c(Nc2ccc3scnc3c2)c(C(=O)N2CCC(c3ccc(F)cc3)CC2)cn(C)c1=O [Compound 208, 4-(benzo[d]thiazol-5-ylamino)-5-[4-(4-fluorophenyl)piperidine-1-carbonyl]-1,3-dimethylpyridin-2(1H)-one]"
6,≤ 1,"Cn1cc(C(=O)N2CCC(c3ccc(F)cc3)CC2)c(Nc2ccc(F)c(F)c2)c(Cl)c1=O [Compound 86, 3-chloro-4-(3,4-difluorophenylamino)-5-[4-(4-fluorophenyl)piperidine-1-carbonyl]-1-methylpyridin-2(1H)-one]"
7,≤ 1,"Cn1cc(C(=O)N2CCC(c3ccc(F)cc3)CC2)c(Nc2ccc3c(c2)OC(F)(F)O3)c(Cl)c1=O [Compound 106, 3-chloro-4-(2,2-difluorobenzo[d][1,3]dioxol-5-ylamino)-5-[4-(4-fluorophenyl)piperidine-1-carbonyl]-1-methylpyridin-2(1H)-one]"
